PubChem BioAssay AID330 (DTP/NCI, 2004)
The list does not hold the whole screen: it is rich in T/C values a quarter to a half above the control, in often repeated tests (any T/C) and in doses without a T/C. Further doses and runs are listed elsewhere. T/C is the treated group as % of the vehicle group. Some doses have a count of surviving animals in place of a T/C: the source files T/C as zero there, which appears to mark a toxic dose or a test without result, not a measured value. Some survivor counts are full or nearly so, which does not show that the dose was tolerated: the source hardly ever lists a survival T/C far under the control, and the zero likely stands for such cases as well. Survivors were counted at the toxicity check, usually on the fifth day, unless a day is given; later deaths do not show. Schedules are NCI's codes, taken here to give the interval after Q, in days (D) or hours (H), and the number of doses after X. Some doses were run more than once; the results are listed from low to high. For survival time, the PubChem record calls one and a half times the control and up active, and a quarter to a half above the control has no call in these data; cut-offs in other NCI protocols can differ. Some T/C values carry the count of animals alive at the toxicity check (mostly the fifth day); where none is given, no animal had died by that day.

Tested on: P388 leukemia ip, CD2F1 mice, survival T/C
Assay: NCI In Vivo Anticancer Drug Screen. Data for tumor model P388 Leukemia (intraperitoneal) in CD2F1 (CDF1) mice
Conditions: T/C endpoint: median survival time, higher T/C = longer survival
[1] = dose: 60.0 mg/kg/injection, schedule: Q01DX005 (ip), vehicle: Klucel (hydroxypropylcellulose) (HPC)
[2] = dose: 120.0 mg/kg/injection, schedule: Q01DX005 (ip), vehicle: Klucel (hydroxypropylcellulose) (HPC)
[3] = dose: 6.25 mg/kg/injection, schedule: Q01DX009 (ip), vehicle: saline with Tween-80
[4] = dose: 25.0 mg/kg/injection, schedule: Q01DX009 (ip), vehicle: saline with Tween-80
[5] = dose: 50.0 mg/kg/injection, schedule: Q01DX009 (ip), vehicle: saline with Tween-80
[6] = dose: 100.0 mg/kg/injection, schedule: Q01DX009 (ip), vehicle: saline with Tween-80
[7] = dose: 0.06 mg/kg/injection, schedule: Q01DX009 (ip), vehicle: water
[8] = dose: 0.12 mg/kg/injection, schedule: Q01DX009 (ip), vehicle: water

**Q.** How did the survivor count (dose: 16.0 mg/kg/injection, schedule: Q01DX009 (ip), vehicle: Klucel (hydroxypropylcellulose) (HPC)) turn out when `O=C1C=CC(=O)N1c1ccc(Cl)cc1` was run?
**A.** The survivor count was 0 of 6.

**Q.** And the survivor count (dose: 32.0 mg/kg/injection, schedule: Q01DX009 (ip), vehicle: Klucel (hydroxypropylcellulose) (HPC))?
**A.** The survivor count was 3 of 6.

**Q.** How did the survivor count (dose: 30.0 mg/kg/injection, schedule: Q01DX005 (ip), vehicle: Klucel (hydroxypropylcellulose) (HPC)) turn out when `CCOC(=O)c1ccc(NC(=O)N(C2CCCCC2)C2CCCCC2)cc1` was run?
**A.** Its survivor count is 6 of 6.

**Q.** What about the survivor count [1] of the same compound?
**A.** The survivor count was 6 of 6.

**Q.** What about the survivor count [2] of the same compound?
**A.** The survivor count was 5 of 6 and 6 of 6.

**Q.** With `Cc1ccc(NCCNCCO)c2c(=O)c3cc(O)ccc3sc12` as the compound, how does the T/C (dose: 3.12 mg/kg/injection, schedule: Q01DX009 (ip), vehicle: saline with Tween-80) read?
**A.** The T/C was 127 % of control.

**Q.** What about the T/C [3] of the same compound?
**A.** Its T/C is 132 % of control.

**Q.** What about the survivor count [4] of the same compound?
**A.** Its survivor count is 4 of 6.

**Q.** What about the survivor count [5] of the same compound?
**A.** The survivor count was 5 of 6.

**Q.** And the survivor count [6]?
**A.** The survivor count was 0 of 6.

**Q.** What about the survivor count (dose: 200.0 mg/kg/injection, schedule: Q01DX009 (ip), vehicle: saline with Tween-80) of the same compound?
**A.** Its survivor count is 0 of 6.

**Q.** Which survivor count [6] does the source give for `O=C(/C=C\c1ccc(NCc2ccc(C(=O)O)cc2)cc1)CCl` here?
**A.** Its survivor count is 3 of 6.

**Q.** For `C(=N\NC1=NCCN1)/c1ccncc1`, which survivor count (dose: 200.0 mg/kg/injection, schedule: Q01DX005 (ip), vehicle: saline) is on record?
**A.** The survivor count was 0 of 6.

**Q.** With `O=C(Nc1ccc(C(=O)c2ccccc2)cc1)Nc1ccc(Cl)c(Cl)c1` as the compound, how does the survivor count [1] read?
**A.** Its survivor count is 6 of 6.

**Q.** And the survivor count [2]?
**A.** Its survivor count is 5 of 6.

**Q.** With `CC(N)(Cc1ccc(O)c(O)c1)C(=O)O` (stereo unspecified) as the compound, how does the T/C (dose: 200.0 mg/kg/injection, schedule: Q01DX009 (ip), vehicle: saline) read?
**A.** Its T/C is 126 % of control.

**Q.** Which results are given for `CC1OC(Nc2ncnc3nc[nH]c23)C(O)C(O)C1NC(=O)CNC(=O)CCCCCCCCCCCC(C)(C)C` (stereo unspecified)?
**A.** T/C (dose: 0.5 mg/kg/injection, schedule: Q01DX009 (ip), vehicle: distilled water + Tween-80): 147 % of control; T/C (dose: 1.0 mg/kg/injection, schedule: Q01DX009 (ip), vehicle: distilled water + Tween-80): 136 % of control; T/C (dose: 2.0 mg/kg/injection, schedule: Q01DX009 (ip), vehicle: distilled water + Tween-80): 149 % of control

**Q.** With `CCCCCCOCCN1CCN(CCCN2c3ccccc3Sc3ccc(C(F)(F)F)cc32)CC1` as the compound, how does the T/C [3] read?
**A.** The T/C was 129 % of control [5 of 6 alive].

**Q.** What about the T/C (dose: 12.5 mg/kg/injection, schedule: Q01DX009 (ip), vehicle: saline with Tween-80) of the same compound?
**A.** Its T/C is 129 % of control [5 of 6 alive].

**Q.** What about the survivor count [4] of the same compound?
**A.** The survivor count was 5 of 6.

**Q.** And the survivor count [5]?
**A.** Its survivor count is 1 of 6.

**Q.** What about the survivor count [6] of the same compound?
**A.** Its survivor count is 0 of 6.

**Q.** How did the survivor count (dose: 0.03 mg/kg/injection, schedule: Q01DX009 (ip), vehicle: water) turn out when `C=C1COC(O)(C2OCOC(C3CC(=O)NC(=O)C3)C2O)C1C` (stereo unspecified) was run?
**A.** Its survivor count is 6 of 6.

**Q.** And the T/C [7]?
**A.** Its T/C is 132 % of control.

**Q.** And the survivor count [7]?
**A.** The survivor count was 1 of 6.

**Q.** What about the T/C [8] of the same compound?
**A.** Its T/C is 142 % of control.

**Q.** And the survivor count [8]?
**A.** The survivor count was 0 of 6.

**Q.** And the survivor count (dose: 0.84 micrograms/kg/injection, schedule: Q01DX009 (ip), vehicle: water)?
**A.** The survivor count was 0 of 6.

**Q.** And the survivor count (dose: 1.68 micrograms/kg/injection, schedule: Q01DX009 (ip), vehicle: water)?
**A.** The survivor count was 0 of 6.

**Q.** What about the survivor count (dose: 3.37 micrograms/kg/injection, schedule: Q01DX009 (ip), vehicle: water) of the same compound?
**A.** The survivor count was 0 of 6.

**Q.** And the survivor count (dose: 7.5 micrograms/kg/injection, schedule: Q01DX009 (ip), vehicle: water)?
**A.** The survivor count was 4 of 6.

**Q.** And the T/C (dose: 8.0 micrograms/kg/injection, schedule: Q01DX009 (ip), vehicle: water)?
**A.** The T/C was 140 % of control.

**Q.** What about the T/C (dose: 16.0 micrograms/kg/injection, schedule: Q01DX009 (ip), vehicle: water) of the same compound?
**A.** The T/C was 149 % of control.

**Q.** How did the survivor count (dose: 200.0 mg/kg/injection, schedule: Q01DX005 (ip), vehicle: Klucel (hydroxypropylcellulose) (HPC)) turn out when `CC(C)(C)c1ccc(/C=N/NC(=O)c2cccnc2)cc1` was run?
**A.** The survivor count was 0 of 5.
